The campaign covered roughly 400,000 compounds. About 5,500 (1.4%) were called active. The shares of active, inactive and inconclusive entries below differ from those in the screen. The call rests on the fitted dose curve; in most records, active means well fitted cell-killing curve with a large enough effect; inconclusive means small, poorly fitted or top-dose-only effect, or effect the other way; inactive means flat fitted curve, though single readings scatter. Potencies of inconclusive entries are doubtful fits and often do not repeat.
Assay: qHTS assay for MDR1-selective chemotherapeutics: Primary screen using the parental adenocarcinoma cell KB-3-1; further: nearly all actives have a fitted effect of over 60% in size
Settings: KB-3-1 viability, CellTiter-Glo ATP luminescence, 72 h; activity change, negative = cytotoxic: at 46.1 µM (top of the series)
Procedure, shortened: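 Screening of KB-3-1 cells (DMEM, 10% FBS, phenol-red free) ran from lowest to highest compound concentration; after 72 h at 37 °C viability was read luminescently and curves fitted.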
On the % scale 0 is the no-effect control and ±100 the full control effect; potency means the concentration at half of the fitted maximal effect.

Compound	activity change, negative = cytotoxic	Potency
COc1ccc(NC(=O)c2ncoc2-c2ccco2)cc1Cl	inconclusive: 3.61%	–
COc1ccc(C(=O)NCCNc2nc3ccc(C)cc3cc2C#N)cc1OC	–	inactive
Cc1cccc(NC(=O)C2CCCN(S(=O)(=O)c3cccc4nsnc34)C2)c1 (centres undefined)	–	inactive
COc1ccc(NC(=O)CSC2=NCCN2)cc1	–	inconclusive: 20.6 µM [cytotoxic, partial curve, poor fit]
COc1ccc(N2CCN(C(=O)CCc3ccc(S(=O)(=O)NCC(C)C)cc3)CC2)cc1	–	inconclusive: 20.6 µM [cytotoxic, single point]
Cc1nc(N)nc(C)c1Cc1ccccc1	–	inactive
O=C(Cc1ccccc1)Nc1sc2c(c1C(=O)Nc1ccccc1Cl)CCCC2	–	inactive
Cc1sc(NC(=O)c2ccco2)c(C(=O)c2ccc(Cl)cc2)c1C	–	inconclusive: 20.6 µM [cytotoxic, single point]
Cc1ccc2nc3n(c(=O)c2c1)-c1cc2ccccc2cc1C(=O)NC3Cc1ccc(O)cc1 (centres undefined)	–	inconclusive: 2.31 µM [cytotoxic, full curve, poor fit]
COCCN(CC1CCCN(C2Cc3ccccc3C2)C1)C(=O)c1cccc(C)c1 (centres undefined)	–	inconclusive: 1.16 µM [rising, full curve]
CCOC(=O)C1=C(NC(=S)NC(=O)c2ccccc2)c2ccccc2CC1(C)CC (centres undefined)	–	active: 16.4 µM
CCOC(=O)[C@@H]1[C@H]2COc3ccc(Br)cc3[C@@H]2N2C(=O)N(c3ccc(OC)cc3)C(=O)[C@@]12C	–	inconclusive: 29.1 µM [cytotoxic, single point]
C#CCCC(=O)c1ccccc1/C=[N+](\[O-])c1ccccc1	–	inconclusive: 20.6 µM [rising, single point]
COc1ccccc1C1CC(c2c(-c3ccccc3)c3cc(Cl)ccc3[nH]c2=O)=NN1S(C)(=O)=O (centres undefined)	–	inconclusive: 29.1 µM [cytotoxic, single point]
C=C(c1nc2ccccc2s1)C1Cc2cccc3c2N(CCC3)C1 (centres undefined)	–	inconclusive: 2.06 µM [cytotoxic, full curve, poor fit]
Cc1cnc(C(=O)Nc2ccc(N3CCN(C(=O)OC(C)(C)C)CC3)cc2)cn1	–	active: 5.8 µM
C=CCN(C(=O)c1ccccc1)c1ccc(OC)cc1	–	inconclusive: 35.5 µM [cytotoxic, single point]
CCC1(C)Cc2ccccc2-c2nc(-c3ccccc3)oc(=O)c21 (centres undefined)	–	inconclusive: 32.6 µM [cytotoxic, single point]
CCOc1ccc(CCNC(=O)CSC(=S)N2CCCC2)cc1OCC	–	inactive
N#C/C(=C(/O)Cc1cccc2ccccc12)c1nc2ccccc2s1	–	inconclusive: 29.1 µM [cytotoxic, single point]
O=C(CC(n1cncn1)C(Cl)(Cl)Cl)c1ccc([N+](=O)[O-])cc1 (centres undefined)	–	inconclusive: 18.4 µM [cytotoxic, partial curve, poor fit]
Cc1ccc(-n2nc(-c3cccs3)cc2C(=O)NCC2CCCO2)c(C)c1 (centres undefined)	–	inconclusive: 29.1 µM [cytotoxic, single point]
CCN1CCN(c2cc(C)c3cc(NC(=O)c4cc(OC)c(OC)c(OC)c4)ccc3n2)CC1	–	inactive

Given with bars between the fields: 2 of the compounds above.
Compound | activity change, negative = cytotoxic | Potency
CCOC(=O)[C@@H]1[C@H]2COc3ccc(Br)cc3[C@@H]2N2C(=O)N(c3ccc(OC)cc3)C(=O)[C@@]12C | – | inconclusive: 29.1 µM [cytotoxic, single point]
C=C(c1nc2ccccc2s1)C1Cc2cccc3c2N(CCC3)C1 (centres undefined) | – | inconclusive: 2.06 µM [cytotoxic, full curve, poor fit]

As entered above.
COc1ccc(NC(=O)c2ncoc2-c2ccco2)cc1Cl – activity change, negative = cytotoxic: inconclusive: 3.61%
COCCN(CC1CCCN(C2Cc3ccccc3C2)C1)C(=O)c1cccc(C)c1 (centres undefined) – Potency: inconclusive: 1.16 µM [rising, full curve]

Additional records.

Compound	activity change, negative = cytotoxic	Potency
NC(Cc1ccc(C(F)(F)F)cc1)c1csc(NC(=O)NCCc2ccccc2)n1 (centres undefined)	–	inconclusive: 29.1 µM [cytotoxic, single point]
Oc1c(Br)cc(Br)cc1/C=N/c1nc2c(s1)CCCC2	–	inconclusive: 29.1 µM [cytotoxic, single point]
CC(C)(C)C(=O)CSc1n[nH]c(-c2ccccc2)n1	–	inactive
COc1cccc(-c2nc(S(=O)(=O)c3ccc(C)cc3)c(NCc3ccccc3)o2)c1	–	inactive
COc1cc(Br)cc(C=Nc2cccc(C(F)(F)F)c2)c1O	–	inconclusive: 18.4 µM [cytotoxic, single point]
CSc1ccc(CN2CCC(C)(Oc3ccc(F)cc3)C2)cc1 (centres undefined)	–	inactive
Clc1cccc(CSc2ncnc3c2ncn3C2CCCCO2)c1 (centres undefined)	–	inactive
CCCC(=O)NC(C)c1nc(-c2ccc(C)cc2)no1 (centres undefined)	–	inactive
Cc1c(C(=O)NCc2ccc([N+](=O)[O-])cc2)sc(=O)n1Cc1ccc(-c2ccccc2)cc1	–	inconclusive: 29.1 µM [cytotoxic, single point]
O=C(CCC1CCCC1)c1c(O)c2ccccc2oc1=O	–	inconclusive: 29.1 µM [cytotoxic, single point]
CC1(C)CC(=O)c2c(oc3ccc(NS(=O)(=O)c4cccc5cccnc45)cc23)C1	–	inconclusive: 32.6 µM [cytotoxic, single point]
Cn1c(=O)oc2cc(NC(=O)CCl)ccc21	–	inconclusive: 23.1 µM [cytotoxic, partial curve, poor fit]
COc1ccc(-c2cc(C(C)=O)c(C)n2CCC(=O)Nc2cccc(C)c2C)cc1	–	inactive
Cc1ccc(O)c(CN(C)Cc2cc(C)ccc2O)c1	–	inconclusive: 29.1 µM [cytotoxic, single point]
CC1(C)Cc2c(ccc3ccccc23)C(c2cc3ccccc3oc2=O)=N1	–	inconclusive: 8.91 µM [cytotoxic, partial curve]
CC(C)c1ccc2[nH]c(O)c(N=NC(=S)NCCc3ccccc3)c2c1	–	inconclusive: 20.6 µM [cytotoxic, single point]
CC1=C(C(=O)N2CCCCCC2)CC(CC(=O)NCc2ccco2)C(=O)N1Cc1ccccc1 (centres undefined)	–	inactive
Cc1ccc(C)c(NC(=O)Cn2cc(S(=O)(=O)N3CCCC3)c(S(=O)(=O)N3CCCC3)c2)c1	–	inconclusive: 0.517 µM [rising, partial curve]
CC(=NNC(=S)N1CCN(C2CCCCCC2)CC1)c1ccccn1	–	inconclusive: 0.103 µM [cytotoxic, full curve, poor fit]
CCOc1ccccc1N(C)C(=O)c1cc(S(=O)(=O)NCc2ccc(C)cc2)ccc1F	–	inconclusive: 29.1 µM [cytotoxic, single point]
CC(C)C(CO)N1CCN(Cc2ccccc2)CCC1=O (centres undefined)	–	inactive
COc1ccc(-c2nc3ccccc3o2)cc1NC(=O)COc1c(C)cc(Cl)cc1Cl	–	inconclusive: 16.4 µM [rising, single point]
CCc1ccc2c(c1)c(=O)c(S(=O)(=O)c1ccccc1)cn2CC(=O)Nc1cc(C)ccc1C	–	inactive

Compound	activity change, negative = cytotoxic	Potency
CC1CN(CC(=O)Nc2ccccc2Sc2ccccc2)CC(C)O1 (centres undefined)	–	inconclusive: 23.1 µM [cytotoxic, single point]
O=C(CSc1nccn1Cc1ccc(F)cc1)Nc1ccc(F)cc1F	–	inactive
O=C(N/N=C/c1ccccc1)c1n[nH]c2c1CCCC2	–	inconclusive: 29.1 µM [cytotoxic, single point]
O=C1c2cccc3cccc(c23)C(=O)N1CCN1CCN(CC(O)COc2ccc3ccccc3c2)CC1 (centres undefined)	–	inconclusive: 29.1 µM [cytotoxic, single point]
Fc1ccc(/C=N/Nc2nccnc2Cl)cc1	–	inconclusive: 29.1 µM [cytotoxic, single point]
CC(=O)C[C@H]1c2cc(C(F)(F)F)ccc2S(=O)(=O)N1C1CCCCC1	–	inconclusive: 32.6 µM [cytotoxic, single point]
CCCNC(=O)COC(=O)c1ccccc1C(=O)c1ccc(Cl)c([N+](=O)[O-])c1	–	inconclusive: 29.1 µM [cytotoxic, single point]
C#Cc1ccccc1OCCCN1CCC(C(O)(c2ccccc2)c2ccccc2)CC1	–	inconclusive: 20.6 µM [cytotoxic, single point]
OCC1(CCOc2ccccc2)CCN(Cc2ccccc2OC(F)F)CC1	inconclusive: -22.8%	–
COc1ccc(NC(=O)c2cc3ccccc3oc2=O)c(OC)c1	–	inactive
O=C(NCc1ccc(F)cc1)C(c1ccco1)N(C(=O)c1csnn1)C1CC1 (centres undefined)	–	inconclusive: 0.651 µM [rising, full curve, poor fit]
Cc1ccc(-n2c(C)cc(C(=O)COC(=O)C3=NNC(=O)CC3)c2C)cc1	–	inconclusive: 16.4 µM [cytotoxic, single point]
N#Cc1nc(-c2ccc(OCc3ccccc3Cl)cc2)oc1N1CCC(C(N)=O)CC1	–	inactive
COCc1cc(/C=N\NC(=O)Cc2ccc(OC)cc2)ccc1OC	–	inactive
COc1ccc(C(=O)O/N=C/c2c(C(F)(F)F)nn(C)c2SCc2ccccc2Cl)cc1	–	active: 7.31 µM
CC1CCCN(S(=O)(=O)c2ccc(C(=O)Nc3ccccc3-c3nc4ccccc4[nH]3)cc2)C1 (centres undefined)	–	inactive
COc1c(C)cc(Br)cc1C(=O)Nc1ccccc1N1CCN(C(=O)c2ccccc2)CC1	–	inconclusive: 18.4 µM [cytotoxic, single point]
Cn1c(CCN2CCCC2)nc2cc(NS(=O)(=O)c3ccc(Cl)cc3)ccc21	–	inconclusive: 29.1 µM [cytotoxic, single point]
COc1ccc(CCN2C(=O)c3[nH]nc(-c4ccccc4O)c3C2c2ccc(C)cc2)cc1OC (centres undefined)	–	inconclusive: 29.1 µM [cytotoxic, single point]
CCN(CC(=O)Nc1cccc(OC)c1)C(=O)c1cccc(S(=O)(=O)N2CCc3ccccc32)c1	–	inconclusive: 29.1 µM [cytotoxic, single point]
COc1ccc(N(C(=O)c2cccnc2)S(=O)(=O)c2ccc3c(c2)n(C)c(=O)n3C)cc1	–	inconclusive: 10.3 µM [rising, partial curve, poor fit]
CCCC(=O)Nc1nc2c(s1)CC(C(C)(C)C)CC2 (centres undefined)	–	inactive
Cc1cc(S(=O)(=O)N2CCN(c3ccccc3C)CC2)ccc1F	–	inactive

— PubChem BioAssay AID1347075 (National Center for Advancing Translational Sciences (NCATS), 2019)
